Values from PubChem BioAssay AID1224830 (NIAID, 2016)
Screen: 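Regulators of TLR4 signalling towards TNF-alpha in macrophage-like cells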 (primary screen). System: human THP-1 monocytic leukaemia cells, TNF dual-luciferase reporter clone, PMA-differentiated to macrophage-like cells. Knock-down reagent: siRNA pool against human genes, 50 nM. Timing: LPS for 4 h, given about 3 days after siRNA transfection. Treatment: bacterial LPS (TLR4 ligand), 10 ng/ml. Detection: 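Ratio of firefly to renilla light, scaled to the plate median and expressed as a robust z-score per replicate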. Direction: TNF reporter robust z-score: higher = stronger TNF reporter response to LPS. Hit rule: 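Each well counts as active if its z-score is over 2.8 or under -1.5; controls are left without a call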.
In all, the deposit lists about 18,000 reagents; this is a random part of them. Over the whole deposit, about 2,900 (16%) got an active call. 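Calls are made per well; low scores hint the gene aids the LPS response, high scores that it dampens it.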 A number with no mark means an inactive call. Repeated entries: four replicate wells of each siRNA pool. Reagent sequences are not shown.

After knock-down of XAF1 (XIAP associated factor 1), the record shows TNF reporter robust z-score 0.19. XAF1 (XIAP associated factor 1) showed TNF reporter robust z-score 0.73. Against XAF1 (XIAP associated factor 1) the deposit lists TNF reporter robust z-score 0.94. Knock-down of XAF1 (XIAP associated factor 1) resulted in: TNF reporter robust z-score 1.47. For PRP4K (pre-mRNA processing factor kinase PRP4K), the entry reads TNF reporter robust z-score 0.35. Silencing of PRP4K (pre-mRNA processing factor kinase PRP4K) came out at: TNF reporter robust z-score 0.24.

PRP4K (pre-mRNA processing factor kinase PRP4K) scored TNF reporter robust z-score 1.87. Silencing of PRP4K (pre-mRNA processing factor kinase PRP4K) resulted in: TNF reporter robust z-score 2.21. Against SPMIP9 (sperm microtubule inner protein 9), the values are TNF reporter robust z-score -0.83. With knock-down of SPMIP9 (sperm microtubule inner protein 9), the record shows TNF reporter robust z-score 0.17. Against SPMIP9 (sperm microtubule inner protein 9) the deposit lists TNF reporter robust z-score 0.15. With knock-down of SPMIP9 (sperm microtubule inner protein 9), the screen gave TNF reporter robust z-score 0.19.

Depletion of HAUS1 (HAUS augmin like complex subunit 1) resulted in: TNF reporter robust z-score -0.85. With knock-down of HAUS1 (HAUS augmin like complex subunit 1), the screen gave TNF reporter robust z-score 0.05. HAUS1 (HAUS augmin like complex subunit 1) showed TNF reporter robust z-score -0.63. HAUS1 (HAUS augmin like complex subunit 1) gave TNF reporter robust z-score 1.02. For ULK1 (unc-51 like autophagy activating kinase 1) the deposit lists TNF reporter robust z-score 0.07. ULK1 (unc-51 like autophagy activating kinase 1) scored TNF reporter robust z-score -0.69.

With knock-down of ULK1 (unc-51 like autophagy activating kinase 1) the results were TNF reporter robust z-score -0.36. Depletion of ULK1 (unc-51 like autophagy activating kinase 1) gave: TNF reporter robust z-score -0.56. After knock-down of OR4C16 (olfactory receptor family 4 subfamily C member 16) the results were TNF reporter robust z-score -1.21. OR4C16 (olfactory receptor family 4 subfamily C member 16) scored TNF reporter robust z-score -0.63. For OR4C16 (olfactory receptor family 4 subfamily C member 16), the values are TNF reporter robust z-score 0.24. OR4C16 (olfactory receptor family 4 subfamily C member 16) scored TNF reporter robust z-score 0.43.

Against IL32 (interleukin 32) the deposit lists TNF reporter robust z-score 0.13. For IL32 (interleukin 32), the values are TNF reporter robust z-score 0.49. Silencing of IL32 (interleukin 32) gave: TNF reporter robust z-score 0.16. After knock-down of IL32 (interleukin 32) the results were TNF reporter robust z-score 0.26. After knock-down of JKAMP (JNK1/MAPK8 associated membrane protein), the screen gave TNF reporter robust z-score -1. Depletion of JKAMP (JNK1/MAPK8 associated membrane protein) came out at: TNF reporter robust z-score -0.92.

Silencing of JKAMP (JNK1/MAPK8 associated membrane protein) came out at: TNF reporter robust z-score -0.43. JKAMP (JNK1/MAPK8 associated membrane protein) showed TNF reporter robust z-score -0.45. Depletion of LINC01973 (long independently transcribed non-coding RNA 1973) gave: TNF reporter robust z-score -0.48. Depletion of LINC01973 (long independently transcribed non-coding RNA 1973) came out at: TNF reporter robust z-score 0.14. Silencing of LINC01973 (long independently transcribed non-coding RNA 1973) resulted in: TNF reporter robust z-score 3.52 (active). After knock-down of LINC01973 (long independently transcribed non-coding RNA 1973) the results were TNF reporter robust z-score 4.74 (active).

RBM8A (RNA binding motif protein 8A) showed TNF reporter robust z-score -1.58 (active). With knock-down of RBM8A (RNA binding motif protein 8A) the results were TNF reporter robust z-score -0.83. Silencing of RBM8A (RNA binding motif protein 8A) came out at: TNF reporter robust z-score -1.42. RBM8A (RNA binding motif protein 8A) scored TNF reporter robust z-score -1.64 (active). Silencing of TNC (tenascin C) resulted in: TNF reporter robust z-score -1.23. After knock-down of TNC (tenascin C), the screen gave TNF reporter robust z-score -0.87.

Against TNC (tenascin C), the values are TNF reporter robust z-score -0.88. TNC (tenascin C) gave TNF reporter robust z-score -1.05. CEP85 (centrosomal protein 85) gave TNF reporter robust z-score 0.48. Depletion of CEP85 (centrosomal protein 85) resulted in: TNF reporter robust z-score 1.41. Depletion of CEP85 (centrosomal protein 85) came out at: TNF reporter robust z-score 1.01. With knock-down of CEP85 (centrosomal protein 85) the results were TNF reporter robust z-score -0.19.

Reformatted: results already given
ULK1 (unc-51 like autophagy activating kinase 1)
- TNF reporter robust z-score: -0.36

ULK1 (unc-51 like autophagy activating kinase 1)
- TNF reporter robust z-score: -0.56
